The list is a part of this screen's results and no random one: it gathers tests that were run many times, whatever their T/C, doses with no T/C, and many T/C values between a quarter and a half above the control. Other doses and runs of a compound stand elsewhere. T/C: endpoint of the treated group in % of that of the vehicle group. Some entries give survivors of the animals treated and no T/C: the source holds a T/C of zero for them, seemingly a mark for toxic or unscored doses. Some survivor counts are full or nearly so, which does not show that the dose was tolerated: the source hardly ever lists a survival T/C far under the control, and the zero likely stands for such cases as well. Counts of survivors are from the toxicity check (mostly the fifth day) where no day follows; animals may have died later. Schedules are NCI's codes, taken here to give the interval after Q, in days (D) or hours (H), and the number of doses after X. Counts like (3×) say how often a value occurs here. Some schedules carry Z or #; the key to these is not given. Where survival is the endpoint, this PubChem deposit counts one and a half times the control or more as active, and values a quarter to a half above the control carry no call in these data; other NCI protocols may use other cut-offs. Some entries hold several experiments; the results are listed from low to high.
Test system: L1210 leukemia ip in BDF1 mice, survival T/C
Test: NCI In Vivo Anticancer Drug Screen. Data for tumor model L1210 Leukemia (intraperitoneal) in B6D2F1 (BDF1) mice
Conditions: higher T/C = longer survival

CN(N=O)C(N)=O
T/C (T/C endpoint: mean survival time, dose: 1.25 mg/kg/injection, schedule: Q01DX Z (sc), vehicle: steroid suspending solution): 135 % of control
T/C (T/C endpoint: mean survival time, dose: 3.12 mg/kg/injection, schedule: Q01DX Z (oral), vehicle: steroid suspending solution): 133 % of control
T/C (T/C endpoint: mean survival time, dose: 5.3 mg/kg/injection, schedule: Q01DX Z (ip), vehicle: saline): 145 % of control
T/C (T/C endpoint: mean survival time, dose: 8.0 mg/kg/injection, schedule: Q02DX010 (ip), vehicle: saline): 129 % of control
T/C (T/C endpoint: mean survival time, dose: 8.6 mg/kg/injection, schedule: Q02DX010 (ip), vehicle: carboxymethylcellulose (CMC)): 105, 119, 121, 128, 130 % of control
T/C (T/C endpoint: mean survival time, dose: 9.0 mg/kg/injection, schedule: Q01DX Z (ip), vehicle: carboxymethylcellulose (CMC)): 134 and 144 % of control
T/C (T/C endpoint: mean survival time, dose: 9.0 mg/kg/injection, schedule: Q01DX Z (sc), vehicle: saline): 127 % of control
T/C (T/C endpoint: mean survival time, dose: 10.0 mg/kg/injection, schedule: Q01DX009 (ip), vehicle: saline): 137 and 139 % of control
T/C (T/C endpoint: mean survival time, dose: 10.7 mg/kg/injection, schedule: Q02DX010 (ip), vehicle: saline): 128 % of control
T/C (T/C endpoint: mean survival time, dose: 12.0 mg/kg/injection, schedule: Q01DX Z (sc), vehicle: other): 143 % of control
T/C (T/C endpoint: mean survival time, dose: 12.0 mg/kg/injection, schedule: Q01DX Z (sc), vehicle: saline): 128 % of control
T/C (T/C endpoint: mean survival time, dose: 13.0 mg/kg/injection, schedule: Q02DX010 (ip), vehicle: carboxymethylcellulose (CMC)): 116, 121, 125, 141, 154 % of control
T/C (T/C endpoint: mean survival time, dose: 13.0 mg/kg/injection, schedule: Q02DX010 (ip), vehicle: other): 130 % of control
T/C (T/C endpoint: mean survival time, dose: 13.0 mg/kg/injection, schedule: Q02DX010 (ip), vehicle: saline): 138 % of control
T/C (T/C endpoint: mean survival time, dose: 13.4 mg/kg/injection, schedule: Q02DX010 (ip), vehicle: carboxymethylcellulose (CMC)): 126, 128, 138, 141, 148 % of control
T/C (T/C endpoint: mean survival time, dose: 16.0 mg/kg/injection, schedule: Q02DX010 (ip), vehicle: saline): 149 % of control
T/C (T/C endpoint: mean survival time, dose: 18.0 mg/kg/injection, schedule: Q01DX Z (ip), vehicle: carboxymethylcellulose (CMC)): 146 % of control
T/C (T/C endpoint: mean survival time, dose: 18.0 mg/kg/injection, schedule: Q01DX Z (sc), vehicle: saline): 130 % of control
T/C (T/C endpoint: mean survival time, dose: 20.0 mg/kg/injection, schedule: Q02DX010 (ip), vehicle: carboxymethylcellulose (CMC)): 124, 125, 127, 131, 139, 146 (2×), 148, 152, 159 % of control
T/C (T/C endpoint: mean survival time, dose: 24.8 mg/kg/injection, schedule: Q01DX Z (oral), vehicle: saline): 137 % of control
survivor count (T/C endpoint: mean survival time, dose: 25.0 mg/kg/injection, schedule: Q01DX Z (oral), vehicle: steroid suspending solution): 4 of 7
T/C (T/C endpoint: mean survival time, dose: 27.0 mg/kg/injection, schedule: Q01DX Z (ip), vehicle: carboxymethylcellulose (CMC)): 149 % of control
T/C (T/C endpoint: mean survival time, dose: 27.0 mg/kg/injection, schedule: Q01DX Z (ip), vehicle: saline): 132 % of control
T/C (T/C endpoint: mean survival time, dose: 27.0 mg/kg/injection, schedule: Q01DX Z (sc), vehicle: other): 132 % of control
T/C (T/C endpoint: mean survival time, dose: 27.0 mg/kg/injection, schedule: Q01DX Z (sc), vehicle: saline): 130 % of control
T/C (T/C endpoint: mean survival time, dose: 30.0 mg/kg/injection, schedule: Q02DX010 (ip), vehicle: carboxymethylcellulose (CMC)): 156, 157, 164, 166, 172, 173, 176, 179, 186, 188 % of control
T/C (T/C endpoint: mean survival time, dose: 36.0 mg/kg/injection, schedule: Q01DX001 (ip), vehicle: saline): 141 % of control
T/C (T/C endpoint: mean survival time, dose: 36.0 mg/kg/injection, schedule: Q01DX Z (oral), vehicle: saline): 140 and 143 % of control
T/C (T/C endpoint: mean survival time, dose: 45.0 mg/kg/injection, schedule: Q02DX010 (ip), vehicle: carboxymethylcellulose (CMC)): 115, 119, 120, 122, 133, 137 (2×), 146, 155, 170 % of control
T/C (T/C endpoint: mean survival time, dose: 45.0 mg/kg/injection, schedule: Q02DX010 (ip), vehicle: other): 138 % of control
T/C (T/C endpoint: mean survival time, dose: 45.0 mg/kg/injection, schedule: Q02DX010 (ip), vehicle: saline): 133 % of control
survivor count (T/C endpoint: mean survival time, dose: 50.0 mg/kg/injection, schedule: Q#A X Z (oral), vehicle: saline): 0 of 7
T/C (T/C endpoint: mean survival time, dose: 54.4 mg/kg/injection, schedule: Q02DX010 (ip), vehicle: saline): 132 % of control
survivor count (T/C endpoint: mean survival time, dose: 60.0 mg/kg/injection, schedule: Q01DX Z (ip), vehicle: saline): 6 of 6
T/C (T/C endpoint: mean survival time, dose: 68.0 mg/kg/injection, schedule: Q02DX010 (ip), vehicle: carboxymethylcellulose (CMC)): 81, 84, 85, 104 % of control
survivor count (T/C endpoint: mean survival time, dose: 84.0 mg/kg/injection, schedule: Q01DX Z (oral), vehicle: saline): 6 of 6
survivor count (T/C endpoint: mean survival time, dose: 90.0 mg/kg/injection, schedule: Q01DX Z (ip), vehicle: saline): 3 of 6
survivor count (T/C endpoint: mean survival time, dose: 135.0 mg/kg/injection, schedule: Q01DX Z (ip), vehicle: saline): 0 of 6
survivor count (T/C endpoint: mean survival time, dose: 144.0 mg/kg/injection, schedule: Q01DX001 (ip), vehicle: saline): 7 of 10
survivor count (T/C endpoint: mean survival time, dose: 200.0 mg/kg/injection, schedule: Q01DX Z (ip), vehicle: saline): 0 of 6
survivor count (T/C endpoint: mean survival time, dose: 201.0 mg/kg/injection, schedule: Q03DX Z (oral), vehicle: saline): 0 of 7
survivor count (T/C endpoint: mean survival time, dose: 288.0 mg/kg/injection, schedule: Q01DX001 (ip), vehicle: saline): 0 of 10
survivor count (T/C endpoint: mean survival time, dose: 300.0 mg/kg/injection, schedule: Q03DX Z (oral), vehicle: saline): 0 of 7
survivor count (T/C endpoint: mean survival time, dose: 315.0 mg/kg/injection, schedule: Q07DX Z (oral), vehicle: saline): 0 of 7
survivor count (T/C endpoint: mean survival time, dose: 320.0 mg/kg/injection, schedule: Q01DX Z (sc), vehicle: steroid suspending solution): 6 of 7
survivor count (T/C endpoint: mean survival time, dose: 469.0 mg/kg/injection, schedule: Q07DX Z (oral), vehicle: saline): 0 of 7
survivor count (T/C endpoint: mean survival time, dose: 700.0 mg/kg/injection, schedule: Q07DX Z (oral), vehicle: saline): 0 of 7
T/C (T/C endpoint: median survival time, dose: 5.0 mg/kg/injection, schedule: Q01DX009 (ip), vehicle: saline): 127 % of control
T/C (T/C endpoint: median survival time, dose: 6.0 mg/kg/injection, schedule: Q01DX009 (ip), vehicle: saline, evaluated on day 30): 139 % of control
T/C (T/C endpoint: median survival time, dose: 6.0 mg/kg/injection, schedule: Q01DX009 (ip), vehicle: saline, evaluated on day 32): 130 % of control
T/C (T/C endpoint: median survival time, dose: 6.3 mg/kg/injection, schedule: Q01DX017 (ip), vehicle: saline): 144 % of control
T/C (T/C endpoint: median survival time, dose: 10.0 mg/kg/injection, schedule: Q01DX009 (ip), vehicle: saline): 142 % of control
T/C (T/C endpoint: median survival time, dose: 12.0 mg/kg/injection, schedule: Q01DX009 (ip), vehicle: saline): 140 % of control
T/C (T/C endpoint: median survival time, dose: 24.0 mg/kg/injection, schedule: Q01DX009 (ip), vehicle: saline): 129 % of control
survivor count (T/C endpoint: median survival time, dose: 48.0 mg/kg/injection, schedule: Q01DX009 (ip), vehicle: saline): 8 of 8 (2×)

O=C1NC(=O)C2C3CCC(O3)C12 (configuration not stated)
T/C (T/C endpoint: mean survival time, dose: 100.0 mg/kg/injection, schedule: Q04DX002 (ip), vehicle: Klucel (hydroxypropylcellulose) (HPC)): 130 % of control
survivor count (T/C endpoint: mean survival time, dose: 200.0 mg/kg/injection, schedule: Q04DX002 (ip), vehicle: Klucel (hydroxypropylcellulose) (HPC)): 2 of 3 (2×)
survivor count (T/C endpoint: mean survival time, dose: 400.0 mg/kg/injection, schedule: Q04DX002 (ip), vehicle: Klucel (hydroxypropylcellulose) (HPC)): 0 of 3 (2×)

CN(N)C(=O)Nc1ccc(Cl)c(Cl)c1
survivor count (T/C endpoint: mean survival time, dose: 300.0 mg/kg/injection, schedule: Q01DX001 (ip), vehicle: carboxymethylcellulose (CMC)): 2 of 6

O=C(NCCCl)NN1CCCCC1
survivor count (T/C endpoint: mean survival time, dose: 400.0 mg/kg/injection, schedule: Q04DX003 (ip), vehicle: Klucel (hydroxypropylcellulose) (HPC)): 3 of 6

CC(C)(C)C1CCCC(=O)C1 (configuration not stated)
survivor count (T/C endpoint: mean survival time, dose: 200.0 mg/kg/injection, schedule: Q01DX001 (ip), vehicle: saline): 1 of 4
survivor count (T/C endpoint: mean survival time, dose: 400.0 mg/kg/injection, schedule: Q01DX001 (ip), vehicle: saline): 0 of 4

Reference: PubChem BioAssay AID248 (DTP/NCI, 2004)
